# These are yes or no findings as the source states them, for the method shown. Binding seen in cells or lysates may run through a third protein. Some results given as binding are weak or reduced against the parent protein; the word gives no strength. Where a sequence is shown, tags or fusion partners need not be part of it.
# Sequences of proteins named here, by UniProt entry; tags and fusion partners are left off.
# UniProt Q92621: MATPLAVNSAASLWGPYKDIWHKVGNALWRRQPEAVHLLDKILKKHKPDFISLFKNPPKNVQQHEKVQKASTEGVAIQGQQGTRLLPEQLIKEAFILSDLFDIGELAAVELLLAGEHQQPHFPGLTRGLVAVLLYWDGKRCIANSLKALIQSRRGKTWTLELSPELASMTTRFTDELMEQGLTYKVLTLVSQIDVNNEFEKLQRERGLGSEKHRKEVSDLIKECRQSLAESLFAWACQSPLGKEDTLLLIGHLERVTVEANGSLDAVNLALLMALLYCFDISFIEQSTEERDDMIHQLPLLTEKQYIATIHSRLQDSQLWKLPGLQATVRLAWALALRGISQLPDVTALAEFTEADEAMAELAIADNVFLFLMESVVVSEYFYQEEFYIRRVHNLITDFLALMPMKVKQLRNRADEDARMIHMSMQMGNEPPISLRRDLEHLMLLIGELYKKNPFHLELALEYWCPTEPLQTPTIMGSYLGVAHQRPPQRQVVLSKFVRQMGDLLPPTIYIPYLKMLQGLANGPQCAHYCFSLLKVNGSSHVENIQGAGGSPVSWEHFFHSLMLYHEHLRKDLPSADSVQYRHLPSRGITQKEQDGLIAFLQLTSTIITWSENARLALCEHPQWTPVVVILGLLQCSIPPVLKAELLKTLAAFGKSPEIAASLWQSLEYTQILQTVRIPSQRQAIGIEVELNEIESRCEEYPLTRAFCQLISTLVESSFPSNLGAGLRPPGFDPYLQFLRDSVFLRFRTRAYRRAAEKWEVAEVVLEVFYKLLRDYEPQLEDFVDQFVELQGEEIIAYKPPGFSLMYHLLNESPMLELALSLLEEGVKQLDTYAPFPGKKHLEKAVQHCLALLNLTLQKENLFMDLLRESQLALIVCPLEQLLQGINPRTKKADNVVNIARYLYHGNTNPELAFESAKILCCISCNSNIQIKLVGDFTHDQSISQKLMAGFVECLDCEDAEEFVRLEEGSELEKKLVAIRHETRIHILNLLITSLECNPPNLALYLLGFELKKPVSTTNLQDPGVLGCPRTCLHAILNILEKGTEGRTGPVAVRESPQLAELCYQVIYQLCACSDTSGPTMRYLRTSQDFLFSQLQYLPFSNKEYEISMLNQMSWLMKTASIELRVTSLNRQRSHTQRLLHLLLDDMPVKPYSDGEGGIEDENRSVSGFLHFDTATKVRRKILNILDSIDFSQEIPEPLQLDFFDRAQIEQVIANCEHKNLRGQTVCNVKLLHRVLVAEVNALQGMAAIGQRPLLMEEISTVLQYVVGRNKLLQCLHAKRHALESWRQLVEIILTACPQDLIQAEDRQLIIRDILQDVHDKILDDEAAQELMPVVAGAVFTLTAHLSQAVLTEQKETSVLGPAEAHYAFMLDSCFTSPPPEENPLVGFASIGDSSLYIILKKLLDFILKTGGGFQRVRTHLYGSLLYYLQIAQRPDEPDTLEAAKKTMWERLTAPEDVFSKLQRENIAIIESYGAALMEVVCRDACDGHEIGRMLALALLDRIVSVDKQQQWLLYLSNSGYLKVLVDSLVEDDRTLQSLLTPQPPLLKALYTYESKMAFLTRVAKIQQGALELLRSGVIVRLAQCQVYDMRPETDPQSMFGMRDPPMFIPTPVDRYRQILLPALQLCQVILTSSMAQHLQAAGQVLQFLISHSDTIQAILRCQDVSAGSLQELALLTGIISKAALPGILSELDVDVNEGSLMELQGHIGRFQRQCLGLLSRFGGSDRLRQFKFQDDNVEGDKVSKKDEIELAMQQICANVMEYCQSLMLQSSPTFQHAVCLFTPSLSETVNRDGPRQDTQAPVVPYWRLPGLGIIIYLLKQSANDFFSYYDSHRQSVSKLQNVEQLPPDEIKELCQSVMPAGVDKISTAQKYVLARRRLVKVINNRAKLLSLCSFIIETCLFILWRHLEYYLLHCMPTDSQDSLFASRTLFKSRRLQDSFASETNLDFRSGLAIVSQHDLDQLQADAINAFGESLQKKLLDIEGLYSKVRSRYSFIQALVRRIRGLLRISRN
# Tests used:
# Assay in all cases: co-IP; GFP-fused Nup93 fragments expressed in HEK293F; 1 mg of lysate supernatant incubated 4 h with glutathione beads pre-bound with GST-tagged anti-GFP nanobody; washed thrice with lysis buffer (1X DPBS, 0.2% tween 20), eluted with reduced glutathione; blots probed with anti-Nup205 and anti-GFP; the paper calls it immunoprecipitation and in vitro pull-down
# [1] = target: T1, GFP-fused human Nup93 N-terminal region (1-150) (human) (UniProt Q8N1F7)
# T1 sequence: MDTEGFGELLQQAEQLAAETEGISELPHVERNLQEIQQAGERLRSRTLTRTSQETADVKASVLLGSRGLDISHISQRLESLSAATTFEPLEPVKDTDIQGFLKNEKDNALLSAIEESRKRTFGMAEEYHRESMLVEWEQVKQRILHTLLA
# [2] = target: T2, GFP-fused human Nup93 R2 fragment (96-150) (human) (UniProt Q8N1F7)
# T2 sequence: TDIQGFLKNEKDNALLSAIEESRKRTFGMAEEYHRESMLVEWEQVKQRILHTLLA
# [3] = target: T3, GFP-fused human Nup93 region (176-819) (human) (UniProt Q8N1F7)
# T3 sequence: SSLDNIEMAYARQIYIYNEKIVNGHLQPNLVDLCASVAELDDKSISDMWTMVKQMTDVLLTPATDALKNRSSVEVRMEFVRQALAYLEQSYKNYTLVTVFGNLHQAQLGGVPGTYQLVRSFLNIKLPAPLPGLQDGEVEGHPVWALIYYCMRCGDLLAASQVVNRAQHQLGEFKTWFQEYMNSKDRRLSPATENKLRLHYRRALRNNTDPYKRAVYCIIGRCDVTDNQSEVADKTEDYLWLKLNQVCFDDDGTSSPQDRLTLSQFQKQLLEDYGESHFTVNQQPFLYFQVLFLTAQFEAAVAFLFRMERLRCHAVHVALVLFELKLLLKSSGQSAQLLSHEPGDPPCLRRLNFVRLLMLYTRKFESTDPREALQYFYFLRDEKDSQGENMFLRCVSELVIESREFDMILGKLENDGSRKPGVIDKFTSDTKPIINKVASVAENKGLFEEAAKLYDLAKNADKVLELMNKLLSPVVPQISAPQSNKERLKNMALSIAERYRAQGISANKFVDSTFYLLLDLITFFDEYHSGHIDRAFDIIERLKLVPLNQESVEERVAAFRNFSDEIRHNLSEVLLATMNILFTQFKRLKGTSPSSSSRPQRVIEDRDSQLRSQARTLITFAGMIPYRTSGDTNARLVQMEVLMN
substance,measurement,setting,value
endogenous Nup205 (from UniProt Q92621 1-2012),binding,[1],binds
same,binding,[2],binds
same,binding,[3],binds weakly

# From paper PMC7356028
